# Data as given in PubChem BioAssay AID1224830 (NIAID, 2016).
# Aim: 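Genes whose knock-down alters the TNF-alpha reporter response to LPS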 (primary screen)
# Cells: human THP-1 monocytic leukaemia cells, TNF dual-luciferase reporter clone, PMA-differentiated to macrophage-like cells
# Reagents: siRNA pool against human genes, 50 nM
# Duration: LPS for 4 h, given about 3 days after siRNA transfection
# Treatment: bacterial LPS (TLR4 ligand), 10 ng/ml
# Detection: 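Ratio of firefly to renilla light, scaled to the plate median and expressed as a robust z-score per replicate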
# Direction: TNF reporter robust z-score: higher = stronger TNF reporter response to LPS
# Rule for the call: 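a well is active when its z-score exceeds 2.8 or falls below -1.5; control wells carry no call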
# Here is a random part of about 18,000 deposited reagents. Of all reagents, about 2,900 (16%) got an active call. 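Calls are made per well; low scores hint the gene aids the LPS response, high scores that it dampens it.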 Repeated entries: four replicate wells of each siRNA pool. Reagent sequences are not shown.
TNF reporter robust z-score,activity call,Target gene
0.39,inactive,MATK (megakaryocyte-associated tyrosine kinase)
0.34,inactive,MATK (megakaryocyte-associated tyrosine kinase)
1.35,inactive,MATK (megakaryocyte-associated tyrosine kinase)
-0.79,inactive,KIRREL3 (kirre like nephrin family adhesion molecule 3)
-0.38,inactive,KIRREL3 (kirre like nephrin family adhesion molecule 3)
-0.53,inactive,KIRREL3 (kirre like nephrin family adhesion molecule 3)
-0.57,inactive,KIRREL3 (kirre like nephrin family adhesion molecule 3)
-0.91,inactive,MTMR2 (myotubularin related protein 2)
-0.01,inactive,MTMR2 (myotubularin related protein 2)
1.7,inactive,MTMR2 (myotubularin related protein 2)
0.19,inactive,MTMR2 (myotubularin related protein 2)
-0.41,inactive,ZNF329 (zinc finger protein 329)
0.39,inactive,ZNF329 (zinc finger protein 329)
-0.2,inactive,ZNF329 (zinc finger protein 329)
0.09,inactive,ZNF329 (zinc finger protein 329)
1.08,inactive,DDX19A (DEAD-box helicase 19A)
-0.16,inactive,DDX19A (DEAD-box helicase 19A)
-0.43,inactive,DDX19A (DEAD-box helicase 19A)
0.01,inactive,DDX19A (DEAD-box helicase 19A)
-0.7,inactive,ZNF146 (zinc finger protein 146)
-0.06,inactive,ZNF146 (zinc finger protein 146)
-1.2,inactive,ZNF146 (zinc finger protein 146)
-0.54,inactive,ZNF146 (zinc finger protein 146)
0.35,inactive,CH25H (cholesterol 25-hydroxylase)
1.06,inactive,CH25H (cholesterol 25-hydroxylase)
0.13,inactive,CH25H (cholesterol 25-hydroxylase)
0.34,inactive,CH25H (cholesterol 25-hydroxylase)
-1.16,inactive,"KPTN (kaptin, actin binding protein)"
0.66,inactive,"KPTN (kaptin, actin binding protein)"
-0.31,inactive,"KPTN (kaptin, actin binding protein)"
-0.22,inactive,"KPTN (kaptin, actin binding protein)"
-1.53,active,FAM47B (family with sequence similarity 47 member B)
0.25,inactive,FAM47B (family with sequence similarity 47 member B)
-0.63,inactive,FAM47B (family with sequence similarity 47 member B)
-0.09,inactive,FAM47B (family with sequence similarity 47 member B)
0.97,inactive,IFI44L (interferon induced protein 44 like)
0.2,inactive,IFI44L (interferon induced protein 44 like)
1.37,inactive,IFI44L (interferon induced protein 44 like)
0.39,inactive,IFI44L (interferon induced protein 44 like)
-1,inactive,RPS4Y1 (ribosomal protein S4 Y-linked 1)
0.51,inactive,RPS4Y1 (ribosomal protein S4 Y-linked 1)
-0.48,inactive,RPS4Y1 (ribosomal protein S4 Y-linked 1)
0.3,inactive,RPS4Y1 (ribosomal protein S4 Y-linked 1)
0.4,inactive,GFUS (GDP-L-fucose synthase)
1.19,inactive,GFUS (GDP-L-fucose synthase)
0.77,inactive,GFUS (GDP-L-fucose synthase)
1.04,inactive,GFUS (GDP-L-fucose synthase)
0.38,inactive,SBK1 (SH3 domain binding kinase 1)
-0.77,inactive,SBK1 (SH3 domain binding kinase 1)
-1.44,inactive,SBK1 (SH3 domain binding kinase 1)
0.07,inactive,SBK1 (SH3 domain binding kinase 1)
2.66,inactive,FCHSD1 (FCH and double SH3 domains 1)
1.96,inactive,FCHSD1 (FCH and double SH3 domains 1)
-0.34,inactive,FCHSD1 (FCH and double SH3 domains 1)
0.87,inactive,FCHSD1 (FCH and double SH3 domains 1)
0.33,inactive,NOMO1 (NODAL modulator 1)
1.35,inactive,NOMO1 (NODAL modulator 1)
-0.75,inactive,NOMO1 (NODAL modulator 1)
0.17,inactive,NOMO1 (NODAL modulator 1)
0.1,inactive,WASHC3 (WASH complex subunit 3)
-0.35,inactive,WASHC3 (WASH complex subunit 3)
0.5,inactive,WASHC3 (WASH complex subunit 3)
0.35,inactive,WASHC3 (WASH complex subunit 3)
-1.02,inactive,CLDN11 (claudin 11)
-2.08,active,CLDN11 (claudin 11)
-0.95,inactive,CLDN11 (claudin 11)
-0.8,inactive,CLDN11 (claudin 11)

Reformatted: entries from further up
TNF reporter robust z-score | activity call | Target gene
-0.53 | inactive | KIRREL3 (kirre like nephrin family adhesion molecule 3)
-0.57 | inactive | KIRREL3 (kirre like nephrin family adhesion molecule 3)
-0.91 | inactive | MTMR2 (myotubularin related protein 2)
-0.01 | inactive | MTMR2 (myotubularin related protein 2)
1.7 | inactive | MTMR2 (myotubularin related protein 2)
0.19 | inactive | MTMR2 (myotubularin related protein 2)
-0.41 | inactive | ZNF329 (zinc finger protein 329)
0.39 | inactive | ZNF329 (zinc finger protein 329)
-0.2 | inactive | ZNF329 (zinc finger protein 329)
0.09 | inactive | ZNF329 (zinc finger protein 329)
1.08 | inactive | DDX19A (DEAD-box helicase 19A)
-0.16 | inactive | DDX19A (DEAD-box helicase 19A)
-0.43 | inactive | DDX19A (DEAD-box helicase 19A)
0.01 | inactive | DDX19A (DEAD-box helicase 19A)

The results go on.
TNF reporter robust z-score,activity call,Target gene
0.02,inactive,ZNF559 (zinc finger protein 559)
0.7,inactive,ZNF559 (zinc finger protein 559)
-0.96,inactive,ZNF559 (zinc finger protein 559)
0.43,inactive,ZNF559 (zinc finger protein 559)
-1.26,inactive,TDP1 (tyrosyl-DNA phosphodiesterase 1)
-0.93,inactive,TDP1 (tyrosyl-DNA phosphodiesterase 1)
-0.5,inactive,TDP1 (tyrosyl-DNA phosphodiesterase 1)
-1.1,inactive,TDP1 (tyrosyl-DNA phosphodiesterase 1)
1.33,inactive,GNB1 (G protein subunit beta 1)
1.84,inactive,GNB1 (G protein subunit beta 1)
2.54,inactive,GNB1 (G protein subunit beta 1)
1.79,inactive,GNB1 (G protein subunit beta 1)
-1.24,inactive,KRTAP12-3 (keratin associated protein 12-3)
0.32,inactive,KRTAP12-3 (keratin associated protein 12-3)
-0.78,inactive,KRTAP12-3 (keratin associated protein 12-3)
-0.44,inactive,KRTAP12-3 (keratin associated protein 12-3)
-0.33,inactive,ASPH (aspartate beta-hydroxylase)
0.13,inactive,ASPH (aspartate beta-hydroxylase)
0.24,inactive,ASPH (aspartate beta-hydroxylase)
0.32,inactive,ASPH (aspartate beta-hydroxylase)
0.93,inactive,TRPV5
-0.92,inactive,TRPV5
-1.35,inactive,TRPV5
-0.51,inactive,TRPV5
0.48,inactive,LURAP1L (leucine rich adaptor protein 1 like)
-0.37,inactive,LURAP1L (leucine rich adaptor protein 1 like)
0.49,inactive,LURAP1L (leucine rich adaptor protein 1 like)
-0.15,inactive,LURAP1L (leucine rich adaptor protein 1 like)
1.73,inactive,COX7A2L (cytochrome c oxidase subunit 7A2 like)
0.61,inactive,COX7A2L (cytochrome c oxidase subunit 7A2 like)
0.82,inactive,COX7A2L (cytochrome c oxidase subunit 7A2 like)
0.46,inactive,COX7A2L (cytochrome c oxidase subunit 7A2 like)
0.09,inactive,KMT2C (lysine methyltransferase 2C)
-0.02,inactive,KMT2C (lysine methyltransferase 2C)
-1.29,inactive,KMT2C (lysine methyltransferase 2C)
-0.51,inactive,KMT2C (lysine methyltransferase 2C)
0.49,inactive,TPST1 (tyrosylprotein sulfotransferase 1)
-1,inactive,TPST1 (tyrosylprotein sulfotransferase 1)
-0.51,inactive,TPST1 (tyrosylprotein sulfotransferase 1)
-0.49,inactive,TPST1 (tyrosylprotein sulfotransferase 1)
-0.74,inactive,OR4K14 (olfactory receptor family 4 subfamily K member 14)
0.36,inactive,OR4K14 (olfactory receptor family 4 subfamily K member 14)
0.45,inactive,OR4K14 (olfactory receptor family 4 subfamily K member 14)
1.16,inactive,OR4K14 (olfactory receptor family 4 subfamily K member 14)
2,inactive,DEFA5 (defensin alpha 5)
4.61,active,DEFA5 (defensin alpha 5)
3.39,active,DEFA5 (defensin alpha 5)
2.58,inactive,DEFA5 (defensin alpha 5)
1.93,inactive,SLC24A4
0.29,inactive,SLC24A4
1.07,inactive,SLC24A4
0.27,inactive,SLC24A4
-0.74,inactive,TARP (TCR gamma alternate reading frame protein)
-0.79,inactive,TARP (TCR gamma alternate reading frame protein)
-0.89,inactive,TARP (TCR gamma alternate reading frame protein)
0.36,inactive,TARP (TCR gamma alternate reading frame protein)
1.22,inactive,TEKT4 (tektin 4)
-0.26,inactive,TEKT4 (tektin 4)
-0.68,inactive,TEKT4 (tektin 4)
-0.35,inactive,TEKT4 (tektin 4)
-1.95,active,VPS36 (vacuolar protein sorting 36 homolog)
-1.76,active,VPS36 (vacuolar protein sorting 36 homolog)
-2,active,VPS36 (vacuolar protein sorting 36 homolog)
-2.01,active,VPS36 (vacuolar protein sorting 36 homolog)
0.05,inactive,C1QTNF9 (C1q and TNF related 9)
-0.79,inactive,C1QTNF9 (C1q and TNF related 9)
0.11,inactive,C1QTNF9 (C1q and TNF related 9)
0.14,inactive,C1QTNF9 (C1q and TNF related 9)
-0.36,inactive,ITGB1BP2 (integrin subunit beta 1 binding protein 2)
0.33,inactive,ITGB1BP2 (integrin subunit beta 1 binding protein 2)
0.13,inactive,ITGB1BP2 (integrin subunit beta 1 binding protein 2)
0.64,inactive,ITGB1BP2 (integrin subunit beta 1 binding protein 2)
-0.11,inactive,CHD1L (chromodomain helicase DNA binding protein 1 like)
0.54,inactive,CHD1L (chromodomain helicase DNA binding protein 1 like)
-0.59,inactive,CHD1L (chromodomain helicase DNA binding protein 1 like)
0.04,inactive,CHD1L (chromodomain helicase DNA binding protein 1 like)
